Results as given in PMC7688965.
These are yes or no findings as the source states them, for the method shown. In cells and extracts the contact can be indirect. Some results given as binding are weak or reduced against the parent protein; the word gives no strength.

Chains of the proteins cited; added tags and fusions are not shown.
UniProt Q13200: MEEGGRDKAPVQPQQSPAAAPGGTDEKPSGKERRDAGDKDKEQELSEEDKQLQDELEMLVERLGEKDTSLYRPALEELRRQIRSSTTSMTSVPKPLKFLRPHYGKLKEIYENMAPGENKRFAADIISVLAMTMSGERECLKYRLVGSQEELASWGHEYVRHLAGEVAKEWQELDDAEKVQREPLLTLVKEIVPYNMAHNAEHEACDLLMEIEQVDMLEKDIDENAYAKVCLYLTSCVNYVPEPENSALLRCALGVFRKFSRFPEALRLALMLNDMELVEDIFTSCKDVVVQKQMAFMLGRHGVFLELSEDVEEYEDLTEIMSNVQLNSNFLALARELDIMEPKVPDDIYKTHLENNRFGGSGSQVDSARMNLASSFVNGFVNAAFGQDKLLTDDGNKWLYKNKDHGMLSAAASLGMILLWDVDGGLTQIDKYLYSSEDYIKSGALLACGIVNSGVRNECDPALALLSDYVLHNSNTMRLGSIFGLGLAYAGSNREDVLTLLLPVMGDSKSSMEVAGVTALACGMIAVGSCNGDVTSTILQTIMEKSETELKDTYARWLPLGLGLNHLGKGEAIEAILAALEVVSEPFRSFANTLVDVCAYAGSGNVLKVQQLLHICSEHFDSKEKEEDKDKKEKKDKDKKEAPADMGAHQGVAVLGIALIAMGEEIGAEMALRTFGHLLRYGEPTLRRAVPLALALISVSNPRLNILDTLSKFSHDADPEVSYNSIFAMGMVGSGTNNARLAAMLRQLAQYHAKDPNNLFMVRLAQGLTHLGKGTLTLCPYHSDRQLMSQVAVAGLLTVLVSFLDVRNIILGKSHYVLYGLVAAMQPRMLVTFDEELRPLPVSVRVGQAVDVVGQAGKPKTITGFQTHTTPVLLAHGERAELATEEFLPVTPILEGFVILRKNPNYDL
UniProt Q15008: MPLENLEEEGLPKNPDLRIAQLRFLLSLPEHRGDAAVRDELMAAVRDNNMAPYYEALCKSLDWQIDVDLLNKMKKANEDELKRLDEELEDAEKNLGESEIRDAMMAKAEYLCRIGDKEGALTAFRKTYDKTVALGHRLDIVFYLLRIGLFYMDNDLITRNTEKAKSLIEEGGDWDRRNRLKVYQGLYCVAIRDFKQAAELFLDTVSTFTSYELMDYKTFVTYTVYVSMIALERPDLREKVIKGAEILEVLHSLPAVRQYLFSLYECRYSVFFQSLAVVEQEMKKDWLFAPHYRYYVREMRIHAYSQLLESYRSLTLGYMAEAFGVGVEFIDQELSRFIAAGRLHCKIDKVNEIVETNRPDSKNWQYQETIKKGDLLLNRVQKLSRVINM

Biological target: Hop (endogenous) (human (endogenous in HEK293T)) (UniProt P31948)
Experiment: co-IP; Hop IP from WT HEK293T cells: 2-3 mg cell extract with 5 µg anti-Hop antibodies, Dynabeads-Protein G, 4 °C; lysis buffer 10 mM Tris-HCl pH 7.5, 50 mM NaCl, 1 mM EDTA, 1 mM DTT, 10% glycerol, 10 mM Na-molybdate, 0.01% Triton X-100; normal IgG as control; immunoblot

| binding | Substance |
| --- | --- |
| binds | Psmd2 (from UniProt Q13200 1-908) |
| binds | Psmd6 (from UniProt Q15008 1-389) |
